Laboratory results as given in PMC10893103, “Cyclodextrin-Enabled Enantioselective Complexation Study of Cathinone Analogs” (Molecules, 2024).

Legend:
[1] = Chiral CE enantioseparation screening, pH 4.5
[2] = Chiral CE enantioseparation screening, pH 4.5; remark: listed apart in the source
[3] = Chiral CE enantioseparation screening, pH 4.5; remark: listed apart in the source
[4] = Affinity capillary electrophoresis (ACE), pH 7.4; conditions: 30 mM phosphate buffer pH 7.4; at the optimal CD concentration printed in brackets beside the value
Outline: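 Mobility-shift ACE of cathinone analogues with cyclodextrins (0.25–20 mM in BGE) in 30 mM phosphate pH 7.4, 25 °C, fused-silica capillary, 15 kV, UV 215 nm, DMSO as EOF marker. Mobilities obtained by HVL peak fitting; complex stability constants corrected for viscosity and ionic strength.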

[5] = Chiral CE enantioseparation screening, pH 4.5; remark: listed apart in the source
[6] = Chiral CE enantioseparation screening, pH 4.5; remark: listed apart in the source
[7] = 20 mM acetate buffer pH 4.5, CD 1 mM
[8] = 20 mM acetate buffer pH 4.5, CD 5 mM
[9] = 20 mM acetate buffer pH 4.5, CD 10 mM
[10] = 20 mM acetate buffer pH 4.5, CD 1-5-10 mM

Substance | Enantioseparation (Rs) of Butylone [1, 7] | Enantioseparation (Rs) of Butylone [1, 8] | Enantioseparation (Rs) of Butylone [1, 9] | Enantioseparation (Rs) of Mephedrone [2, 7] | Enantioseparation (Rs) of Mephedrone [2, 8] | Enantioseparation (Rs) of Mephedrone [2, 9] | Enantioseparation (Rs) of 4-MEC [3, 7] | Enantioseparation (Rs) of 4-MEC [3, 8] | Enantioseparation (Rs) of 4-MEC [3, 9] | 4-MEC maximal enantioresolution Rs [4] | Butylone maximal enantioresolution Rs [4] | Flephedrone maximal enantioresolution Rs [4] | MDPV maximal enantioresolution Rs [4] | Mephedrone maximal enantioresolution Rs [4] | Enantioseparation (Rs) of MDPV [5, 7] | Enantioseparation (Rs) of MDPV [5, 8] | Enantioseparation (Rs) of MDPV [5, 9] | Enantioseparation (Rs) of Flephedrone [6, 7] | Enantioseparation (Rs) of Flephedrone [6, 8] | Enantioseparation (Rs) of Flephedrone [6, 9] | other results
carboxymethylated-α-CD [CM-α-CD] | 0.3 | 0.5 | 0.8 | 0.6 | 1.7 | 0.8 | 0.4 | 1.5 | 0.6 | 1.4 | 0.6 | 0.9 | 3.3 | 1.7 | 1.7 | 2.9 | 5.5 | 0.5 | 0.9 | 1.2 | –
carboxymethylated-β-CD [CM-β-CD] | 0.6 | 0.3 | 0.4 | 0 | 0.1 | 0.4 | 0.3 | 0.4 | 0.5 | 0.6 | 0.4 | 1.3 | 3.3 | 0.7 | 1.6 | 2.1 | 3.5 | 0.4 | 0.8 | 0.8 | –
carboxymethylated-γ-CD [CM-γ-CD] | 1.2 | 1.6 | 1.9 | 1.1 | 2.6 | 2.2 | 0.7 | 2.1 | 1.7 | 1.7 | 1.8 | 0.7 | 1.4 | 2.6 | 0.9 | 1.9 | 0.5 | 0 | 0.9 | 0.9 | –
dimethylated-β-CD [DIME-β-CD] | 0 | 0 | 0 | 0 | 0 | 0 | 0 | 0 | 0 | 0.6 | – | – | – | – | 0 | 0 | 0 | 0 | 0.8 | 0.5 | –
randomly methylated-β-CD [RAME-β-CD] | – | – | – | – | – | – | – | – | – | – | 0.3 | – | – | – | – | – | – | – | – | – | Enantioseparation (Rs) of Butylone [1, 10]: 0; Enantioseparation (Rs) of Mephedrone [2, 10]: 0; Enantioseparation (Rs) of 4-MEC [3, 10]: 0; Enantioseparation (Rs) of MDPV [5, 10]: 0; Enantioseparation (Rs) of Flephedrone [6, 10]: 0
sulfated-β-CD [S-β-CD] | 0.5 | – | – | 1.6 | 3.1 | – | 1.9 | 4.2 | – | 5.0 | – | – | – | 4.8 | 0.6 | – | – | 0.1 | 0.6 | 0.9 | –
